Results are given in words; binding and its absence hold for the method and conditions named.

By UniProt entry, the sequences of proteins in these tests, tags left out. Where a name states a change or a piece, a line headed by the entry shows the natural chain unless it says otherwise.
UniProt O95817: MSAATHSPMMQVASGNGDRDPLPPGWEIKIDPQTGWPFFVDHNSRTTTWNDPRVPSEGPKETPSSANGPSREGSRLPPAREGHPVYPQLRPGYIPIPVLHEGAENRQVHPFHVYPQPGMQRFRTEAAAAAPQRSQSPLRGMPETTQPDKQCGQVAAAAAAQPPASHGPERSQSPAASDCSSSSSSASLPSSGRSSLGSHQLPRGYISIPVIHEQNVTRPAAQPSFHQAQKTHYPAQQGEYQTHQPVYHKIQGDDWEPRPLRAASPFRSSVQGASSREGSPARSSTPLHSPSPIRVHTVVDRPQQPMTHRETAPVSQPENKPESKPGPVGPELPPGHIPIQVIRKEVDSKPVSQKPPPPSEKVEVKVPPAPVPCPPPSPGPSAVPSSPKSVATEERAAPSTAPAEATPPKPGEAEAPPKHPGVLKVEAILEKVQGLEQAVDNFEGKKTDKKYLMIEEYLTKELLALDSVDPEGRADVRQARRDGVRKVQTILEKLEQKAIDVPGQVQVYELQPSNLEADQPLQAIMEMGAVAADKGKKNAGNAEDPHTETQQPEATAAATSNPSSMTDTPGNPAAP

Experiment in all cases: SEC-MALS; 30 µM BAG3 solutions separated on Shodex 804, in-line DAWN HELEOS and Optilab rEX detectors; both purified
The target in test [1] is BAG3^P209A (recombinant) (human) (UniProt O95817).
Test [2] concerns the target BAG3^P209K (recombinant) (human) (UniProt O95817).
The target of test [3] is BAG3^P209G (recombinant) (human) (UniProt O95817).
In test [4] the target is BAG3^P209D (recombinant) (human) (UniProt O95817).

In the case of “BAG3^P209A (recombinant) (from UniProt O95817 1-575)”, in test [1], the binding entry is on record as “no binding”.
With “BAG3^P209K (recombinant) (from UniProt O95817 1-575)”, the binding entry in test [2] is reported as “no binding”.
In the case of “BAG3^P209G (recombinant) (from UniProt O95817 1-575)”, the binding entry in test [3] is recorded as “no binding”.
For “BAG3^P209D (recombinant) (from UniProt O95817 1-575)”, in test [4], the binding entry is “no binding”.
